From patent US11260115B1, “Peptides and combination of peptides for use in immunotherapy against CLL and other cancers” (immatics biotechnologies GmbH, priority 2015, dated 2022)

System: CLL samples compared to a panel of normal tissues
Experiment: Identification and label-free relative LC-MS quantitation of HLA-presented peptides (presentation profile / presentation score)
Set-up: species or system human; key: very highly over-presented on tumors compared to a panel of normal tissues (+++); highly over-presented on tumors compared to a panel of normal tissues (++); over-presented on tumors compared to a panel of normal tissues (+)
Conditions: over-presentation on tumors (CLL) compared to a panel of normal tissues; label-free LC-MS quantitation

Row | Substance | Peptide Presentation (presentation score)
1 | 62 (GIIDGSPRL; listed as Homo sapiens) [compound 62] | +
2 | 153 (SLLAELHVL; listed as Homo sapiens) [compound 153] | ++
